We go through 33 compounds from the supplement of paper PMC4635364.

Counter-ions that a name gives are not always drawn. Some of the results follow. This data set is noisy: repeats of one test often differ as much as different tests do.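 Cells: ReNCell VM human fetal ventral-midbrain neural progenitors, differentiated mitogen-free. Blinded raters compared doublecortin-stained (early neurons) or tyrosine hydroxylase-stained (dopaminergic neurons) images with untreated wells, where 0 means no change. After repeats and both raters were averaged, compounds scoring 2 or above became hits for retesting.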

Assay [1] relates to ReNCell VM. Briefly: neuronal differentiation score (DCX+ cell fraction vs untreated, manual image score) (score (-3 to 3)); higher = more neuronal differentiation. The conditions noted are these: 2 uM, 2 weeks.
The subject of assay [2] is ReNCell VM. Briefly: dopaminergic neuron differentiation score (TH+ cell fraction vs untreated, manual image score) (score (0 to 3)); higher = more TH+ dopaminergic neuron differentiation. As to conditions: 2 uM, 4 weeks, BDNF 10 ng/ml + GDNF 10 ng/ml.

For `O=C(/C=C/c1ccc(O)c(O)c1)O[C@H](Cc1ccc(O)c(O)c1)C(=O)O` [Rosmarinic acid], the neuronal differentiation score in the assay with ReNCell VM [1] (library: Tocriscreen) was inactive: 0. The “dopaminergic neuron differentiation score” value in the assay with ReNCell VM [2] (library: Tocriscreen) was inactive: 0.

Turning to `NS(=O)(=O)c1cc2c(cc1Cl)NC(CC1CCCC1)NS2(=O)=O` (stereo unspecified) [Cyclopenthiazide], in the assay with ReNCell VM [1] (library: Prestwick), the neuronal differentiation score is inactive: 0. For the same compound, the “dopaminergic neuron differentiation score” value in the assay on ReNCell VM [2] (library: Prestwick) is inactive: 0.

Take `COc1ccc(-c2cc(=O)c3c(O)c(OC)c(OC)c(OC)c3o2)cc1OC`: in the assay with ReNCell VM [1] (library: Spectrum), the neuronal differentiation score is inactive: 0. In addition, the “dopaminergic neuron differentiation score” value in the assay with ReNCell VM [2] (library: Spectrum) was inactive: 0.

For the compound `CCN1CCCC1CNC(=O)c1cc(S(N)(=O)=O)ccc1OC` (stereo unspecified) [Sulpiride], the neuronal differentiation score in the assay on ReNCell VM [1] (library: Prestwick) is inactive: 0. Further, the “dopaminergic neuron differentiation score” value in the assay with ReNCell VM [2] (library: Prestwick) was inactive: 0.

`CCCN(CCC)S(=O)(=O)c1ccc(C(=O)O)cc1`: in the assay on ReNCell VM [1] (library: Spectrum), the neuronal differentiation score is inactive: 0. For the same compound, in the assay on ReNCell VM [2] (library: Spectrum), the “dopaminergic neuron differentiation score” value was inactive: 0.

With `NCCCCNCCCN`, in the assay with ReNCell VM [1] (library: Spectrum), the neuronal differentiation score was inactive: 0. For the same compound, the “dopaminergic neuron differentiation score” value in the assay on ReNCell VM [2] (library: Spectrum) is inactive: 0.

With `CN(C)CCCn1cc(C2=C(c3c[nH]c4ccccc34)C(=O)NC2=O)c2ccccc21`, in the assay on ReNCell VM [1] (library: Tocriscreen), the neuronal differentiation score was inactive: 0. Moreover, the “dopaminergic neuron differentiation score” value in the assay on ReNCell VM [2] (library: Tocriscreen) was inactive: 0.

Consider `O=C1C(CC[S+]([O-])c2ccccc2)C(=O)N(c2ccccc2)N1c1ccccc1` (stereo unspecified), for which, in the assay with ReNCell VM [1] (library: Spectrum), the neuronal differentiation score was inactive: 0. The “dopaminergic neuron differentiation score” value in the assay with ReNCell VM [2] (library: Spectrum) was inactive: 0.

For `CCOC(=O)[C@H](CCc1ccccc1)N[C@H]1CCc2ccccc2N(CC(=O)O)C1=O` [Benazepril HCl], in the assay with ReNCell VM [1] (library: Prestwick), the neuronal differentiation score was inactive: 0. Moreover, the “dopaminergic neuron differentiation score” value in the assay with ReNCell VM [2] (library: Prestwick) was inactive: 0.

In the case of `CCCNC[C@H](O)COc1ccccc1C(=O)CCc1ccccc1` [(S)-(-)-propafenone hydrochloride], the neuronal differentiation score with ReNCell VM [1] (library: LOPAC) is inactive: 0. In the assay with ReNCell VM [2] (library: LOPAC), the “dopaminergic neuron differentiation score” value was inactive: 0.

`CCCCCCCCCCCCCCCCC(C(=O)O)C(O)(CC(=O)O)C(=O)O` (stereo unspecified): the neuronal differentiation score in the assay with ReNCell VM [1] (library: Spectrum) is inactive: 0. In the assay with ReNCell VM [2] (library: Spectrum), the “dopaminergic neuron differentiation score” value was inactive: 0.

For `COc1ccc(C=C2NC(=O)C3Cc4ccccc4CN3C2=O)cc1` (stereo unspecified), the neuronal differentiation score with ReNCell VM [1] (library: Natural) was inactive: 0. In addition, the “dopaminergic neuron differentiation score” value in the assay with ReNCell VM [2] (library: Natural) was inactive: 0.

In the case of `c1ccc(-c2ccccn2)nc1` [2,2'-Bipyridyl], in the assay with ReNCell VM [1] (library: LOPAC), the neuronal differentiation score was inactive: 0. The “dopaminergic neuron differentiation score” value in the assay on ReNCell VM [2] (library: LOPAC) is inactive: 0.

As to `O=C(O)c1cc(-c2ccccc2)nc2ccccc12`, the neuronal differentiation score with ReNCell VM [1] (library: Spectrum) is inactive: 0. Moreover, the “dopaminergic neuron differentiation score” value in the assay with ReNCell VM [2] (library: Spectrum) was inactive: 1.

As for `CC[N+](C)(CC)CCC[n+]1c(-c2ccccc2)c2cc(N)ccc2c2ccc(N)cc21` [Propidium iodide], the neuronal differentiation score with ReNCell VM [1] (library: Prestwick) is inactive: -3. Also, the “dopaminergic neuron differentiation score” value in the assay on ReNCell VM [2] (library: Prestwick) was inactive: 0.

On to `CCCCC1C(=O)N(c2ccccc2)N(c2ccc(O)cc2)C1=O` (stereo unspecified), for which the neuronal differentiation score with ReNCell VM [1] (library: Spectrum) was inactive: 0. Further, the “dopaminergic neuron differentiation score” value in the assay on ReNCell VM [2] (library: Spectrum) was inactive: 0.

Take `CS(=O)(=O)c1ccc([C@@H](O)[C@@H](CF)NC(=O)C(Cl)Cl)cc1`: the neuronal differentiation score in the assay with ReNCell VM [1] (library: Spectrum) was inactive: 0. Also, the “dopaminergic neuron differentiation score” value in the assay with ReNCell VM [2] (library: Spectrum) was inactive: 0.

For the compound `O=c1cc(-c2ccc(O)cc2)oc2c([C@@H]3O[C@H](CO)[C@@H](O)[C@H](O)[C@H]3O)c(O)cc(O)c12` [Vitexin], the neuronal differentiation score in the assay with ReNCell VM [1] (library: Phytochemical) was inactive: 0. Further, the “dopaminergic neuron differentiation score” value in the assay with ReNCell VM [2] (library: Phytochemical) is inactive: 0.

Consider `CN(C)CCOc1ccc(/C(=C(/CCCl)c2ccccc2)c2ccccc2)cc1`, for which the neuronal differentiation score with ReNCell VM [1] (library: Spectrum) was inactive: 0. Further, in the assay on ReNCell VM [2] (library: Spectrum), the “dopaminergic neuron differentiation score” value is inactive: 1.

As to `CCN(CC)CCOc1ccc(Cc2ccccc2)cc1` [DPPE fumarate], the neuronal differentiation score in the assay on ReNCell VM [1] (library: Tocriscreen) was inactive: 0. Besides, in the assay with ReNCell VM [2] (library: Tocriscreen), the “dopaminergic neuron differentiation score” value was inactive: 0.

Regarding `CCCCC/C=C/CCC(=O)N[C@H]1[C@H](Oc2c3cc4cc2Oc2ccc(cc2Cl)[C@@H](O[C@@H]2O[C@H](CO)[C@@H](O)[C@H](O)[C@H]2NC(C)=O)[C@@H]2NC(=O)[C@H](NC(=O)[C@@H]4NC(=O)[C@H]4NC(=O)C(Cc5ccc(c(Cl)c5)O3)NC(=O)[C@H](N)c3ccc(O)c(c3)Oc3cc(O)cc4c3)c3ccc(O)c(c3)-c3c(OC4O[C@H](CO)[C@@H](O)[C@H](O)[C@@H]4O)cc(O)cc3[C@@H](C(=O)O)NC2=O)O[C@H](CO)[C@@H](O)[C@@H]1O` (stereo partly specified) [TEICOPLANIN [A(2-1) shown]], the neuronal differentiation score in the assay on ReNCell VM [1] (library: Spectrum) is inactive: 0. For the same compound, the “dopaminergic neuron differentiation score” value with ReNCell VM [2] (library: Spectrum) was inactive: 0.

In the case of `CCCCNc1ccc(C(=O)OCCOCCOCCOCCOCCOCCOCCOCCOCCOC)cc1`, the neuronal differentiation score in the assay on ReNCell VM [1] (library: Spectrum) was inactive: 0. Also, the “dopaminergic neuron differentiation score” value in the assay on ReNCell VM [2] (library: Spectrum) was inactive: 0.

As to `O=C(O)CN(CCOCCOCCN(CC(=O)O)CC(=O)O)CC(=O)O`, the neuronal differentiation score with ReNCell VM [1] (library: LOPAC) is inactive: 1. Moreover, in the assay on ReNCell VM [2] (library: LOPAC), the “dopaminergic neuron differentiation score” value was inactive: 0.

For `COc1cc2c(cc1OC)[C@@H](c1ccccc1)CN(C)CC2`, the neuronal differentiation score in the assay on ReNCell VM [1] (library: LOPAC) is inactive: 0. Also, the “dopaminergic neuron differentiation score” value in the assay with ReNCell VM [2] (library: LOPAC) is inactive: 0.

Consider `NCCCNCCCCNCCCN` [Spermine tetrahydrochloride], for which the neuronal differentiation score in the assay on ReNCell VM [1] (library: LOPAC) was active: 3. Besides, the “dopaminergic neuron differentiation score” value in the assay with ReNCell VM [2] (library: LOPAC) is inactive: 0.

In the case of `O=C(/C=C/c1ccc(O)c(O)c1)O[C@@H]1C[C@](O)(C(=O)O)C[C@@H](O)[C@H]1O` [Chlorogenic acid], the neuronal differentiation score in the assay with ReNCell VM [1] (library: Phytochemical) is inactive: 0. Moreover, the “dopaminergic neuron differentiation score” value with ReNCell VM [2] (library: Phytochemical) is inactive: 0.

In the case of `CCCCC#Cc1nc(N)c2ncn([C@@H]3O[C@H](C(=O)NCC)[C@@H](O)[C@H]3O)c2n1`, the neuronal differentiation score with ReNCell VM [1] (library: LOPAC) is inactive: 0. Also, in the assay on ReNCell VM [2] (library: LOPAC), the “dopaminergic neuron differentiation score” value is inactive: 0.

Take `Oc1ccc(Cn2cc[nH]c2=S)cc1` [1-(4-Hydroxybenzyl)imidazole-2-thiol]: the neuronal differentiation score in the assay on ReNCell VM [1] (library: LOPAC) was inactive: 0. The “dopaminergic neuron differentiation score” value in the assay on ReNCell VM [2] (library: LOPAC) was inactive: 0.

Turning to `CC1=CC(=O)CC(C)(C)[C@@]1(O)/C=C/C(C)=C\C(=O)O` (racemic) [(+/-)-2-cis-4-trans-Abscisic acid], the neuronal differentiation score in the assay with ReNCell VM [1] (library: Phytochemical) is inactive: 0. Also, in the assay on ReNCell VM [2] (library: Phytochemical), the “dopaminergic neuron differentiation score” value is inactive: 0.

For the compound `O=C(CCCN1CCN(c2ccccn2)CC1)c1ccc(F)cc1`, the neuronal differentiation score with ReNCell VM [1] (library: Spectrum) is inactive: 0. Moreover, in the assay with ReNCell VM [2] (library: Spectrum), the “dopaminergic neuron differentiation score” value was inactive: 0.

On to `COc1cc([S+](C)[O-])ccc1-c1nc2cccnc2[nH]1` (stereo unspecified), for which the neuronal differentiation score in the assay with ReNCell VM [1] (library: Spectrum) is inactive: 0. Further, in the assay on ReNCell VM [2] (library: Spectrum), the “dopaminergic neuron differentiation score” value is inactive: 0.

For `Cc1[nH]c(=O)c(C#N)cc1-c1ccc2nccn2c1` [Olprinone hydrochloride], the neuronal differentiation score in the assay on ReNCell VM [1] (library: LOPAC) was inactive: 0. Moreover, in the assay on ReNCell VM [2] (library: LOPAC), the “dopaminergic neuron differentiation score” value is inactive: 0.

As for `C=C1C(=O)O[C@@H]2/C=C(\C)CC/C=C(\C)CC[C@@H]12` [Costunolide], the neuronal differentiation score in the assay on ReNCell VM [1] (library: Tocriscreen) is inactive: 0. For the same compound, the “dopaminergic neuron differentiation score” value in the assay on ReNCell VM [2] (library: Tocriscreen) is inactive: 0.
